The supplement of paper PMC7661543
± gives the standard deviation of the averaged measurements. The effect of the compound repeats well; differences between the knockouts mostly do not.

Test system: MDA-MB-231
Assay: relative cell number vs DMSO control (72 h) (% of DMSO); higher = less growth inhibition (more cells)
Description: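 QMAP-Seq: a pool of 5 breast cancer cell lines (ZR-75-1, SKBR3, HCC-38, MDA-MB-231, BT-20), each carrying 12 doxycycline-inducible Cas9 sgRNA perturbations (11 knockouts plus non-targeting sgNT), was treated with compounds for 72 h at four 10-fold doses (10 nM-10 uM or 1 nM-1 uM range). Barcodes were amplified and sequenced, and cell number was interpolated from 293T spike-in standard curves. The result is expressed as % of the median of DMSO wells. Two biological replicates.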

COc1cccc2cc(-c3nc([C@H]4CC[C@H](C(=O)O)CC4)n4ncnc(N)c34)[nH]c12 [OSI027]
Conditions	relative cell number
sgRNA knockout: sgATF3, 10 nM	97 ± 2.8
sgRNA knockout: sgATF3, 100 nM	128 ± 3.8
sgRNA knockout: sgATF3, 1000 nM	103 ± 7.8
sgRNA knockout: sgATF3, 10000 nM	67.5 ± 19
sgRNA knockout: sgATF4, 10 nM	90.7 ± 18
sgRNA knockout: sgATF4, 100 nM	115 ± 21
sgRNA knockout: sgATF4, 1000 nM	82.9 ± 4.2
sgRNA knockout: sgATF4, 10000 nM	75.5 ± 5.1
sgRNA knockout: sgATF6, 10 nM	114 ± 15
sgRNA knockout: sgATF6, 100 nM	104 ± 21
sgRNA knockout: sgATF6, 1000 nM	102 ± 1.8
sgRNA knockout: sgATF6, 10000 nM	55.4 ± 2.5
sgRNA knockout: sgATG7, 10 nM	104 ± 12
sgRNA knockout: sgATG7, 100 nM	102 ± 7.7
sgRNA knockout: sgATG7, 1000 nM	92.4 ± 1.2
sgRNA knockout: sgATG7, 10000 nM	58.3 ± 9.8
sgRNA knockout: sgERN1, 10 nM	92.7 ± 5.5
sgRNA knockout: sgERN1, 100 nM	101 ± 15
sgRNA knockout: sgERN1, 1000 nM	79.8 ± 11
sgRNA knockout: sgERN1, 10000 nM	55.6 ± 5.8
sgRNA knockout: sgHSF1, 10 nM	107 ± 14
sgRNA knockout: sgHSF1, 100 nM	111.4 ± 0.54
sgRNA knockout: sgHSF1, 1000 nM	74.7 ± 0.78
sgRNA knockout: sgHSF1, 10000 nM	58.8 ± 11
sgRNA knockout: sgHSF2, 10 nM	113 ± 7.7
sgRNA knockout: sgHSF2, 100 nM	120 ± 15
sgRNA knockout: sgHSF2, 1000 nM	77.2 ± 26
sgRNA knockout: sgHSF2, 10000 nM	61.6 ± 7.7
sgRNA knockout: sgKEAP1, 10 nM	81 ± 11
sgRNA knockout: sgKEAP1, 100 nM	109 ± 6.7
sgRNA knockout: sgKEAP1, 1000 nM	86.5 ± 16
sgRNA knockout: sgKEAP1, 10000 nM	51.7 ± 8.4
sgRNA knockout: sgNFE2L2, 10 nM	135 ± 55
sgRNA knockout: sgNFE2L2, 100 nM	117 ± 20
sgRNA knockout: sgNFE2L2, 1000 nM	88.4 ± 3.4
sgRNA knockout: sgNFE2L2, 10000 nM	58.9 ± 14
sgRNA knockout: sgSLC35F2, 10 nM	93.2 ± 2.5
sgRNA knockout: sgSLC35F2, 100 nM	122 ± 17
sgRNA knockout: sgSLC35F2, 1000 nM	88.5 ± 12
sgRNA knockout: sgSLC35F2, 10000 nM	63 ± 3.7
sgRNA knockout: sgXBP1, 10 nM	125 ± 23
sgRNA knockout: sgXBP1, 100 nM	112 ± 18
sgRNA knockout: sgXBP1, 1000 nM	82.4 ± 17
sgRNA knockout: sgXBP1, 10000 nM	57.3 ± 15

Cc1ccc(NC(=O)c2ccc(CN3CCN(C)CC3)cc2)cc1Nc1nc(-c2cccnc2)cs1 [Masitinib]
Conditions	relative cell number
sgRNA knockout: sgATF3, 10 nM	107 ± 1.2
sgRNA knockout: sgATF3, 100 nM	88.7 ± 14
sgRNA knockout: sgATF3, 1000 nM	87.8 ± 38
sgRNA knockout: sgATF3, 10000 nM	55.8 ± 21
sgRNA knockout: sgATF4, 10 nM	96.2 ± 33
sgRNA knockout: sgATF4, 100 nM	97.3 ± 52
sgRNA knockout: sgATF4, 1000 nM	76.7 ± 19
sgRNA knockout: sgATF4, 10000 nM	48.1 ± 17
sgRNA knockout: sgATF6, 10 nM	128 ± 26
sgRNA knockout: sgATF6, 100 nM	96.4 ± 31
sgRNA knockout: sgATF6, 1000 nM	104 ± 13
sgRNA knockout: sgATF6, 10000 nM	46.7 ± 5.8
sgRNA knockout: sgATG7, 10 nM	83.6 ± 14
sgRNA knockout: sgATG7, 100 nM	97.1 ± 12
sgRNA knockout: sgATG7, 1000 nM	69.9 ± 9.1
sgRNA knockout: sgATG7, 10000 nM	60.6 ± 14
sgRNA knockout: sgERN1, 10 nM	115 ± 3.9
sgRNA knockout: sgERN1, 100 nM	117 ± 5.3
sgRNA knockout: sgERN1, 1000 nM	122 ± 2.4
sgRNA knockout: sgERN1, 10000 nM	43 ± 22
sgRNA knockout: sgHSF1, 10 nM	86 ± 5.4
sgRNA knockout: sgHSF1, 100 nM	91 ± 22
sgRNA knockout: sgHSF1, 1000 nM	80.5 ± 14
sgRNA knockout: sgHSF1, 10000 nM	43.8 ± 22
sgRNA knockout: sgHSF2, 10 nM	86.4 ± 17
sgRNA knockout: sgHSF2, 100 nM	97.6 ± 21
sgRNA knockout: sgHSF2, 1000 nM	97.5 ± 21
sgRNA knockout: sgHSF2, 10000 nM	63.6 ± 8
sgRNA knockout: sgKEAP1, 10 nM	99.9 ± 18
sgRNA knockout: sgKEAP1, 100 nM	78.7 ± 13
sgRNA knockout: sgKEAP1, 1000 nM	109 ± 21
sgRNA knockout: sgKEAP1, 10000 nM	46.9 ± 4
sgRNA knockout: sgNFE2L2, 10 nM	113 ± 8.3
sgRNA knockout: sgNFE2L2, 100 nM	77.8 ± 5.9
sgRNA knockout: sgNFE2L2, 1000 nM	105 ± 37
sgRNA knockout: sgNFE2L2, 10000 nM	46.8 ± 5.7
sgRNA knockout: sgSLC35F2, 10 nM	102 ± 30
sgRNA knockout: sgSLC35F2, 100 nM	79.2 ± 28
sgRNA knockout: sgSLC35F2, 1000 nM	94.9 ± 12
sgRNA knockout: sgSLC35F2, 10000 nM	71.2 ± 11
sgRNA knockout: sgXBP1, 10 nM	80.9 ± 2.5
sgRNA knockout: sgXBP1, 100 nM	90.6 ± 2.3
sgRNA knockout: sgXBP1, 1000 nM	112 ± 11
sgRNA knockout: sgXBP1, 10000 nM	46.54 ± 0.39
